Results taken from PubChem BioAssay AID2391 (Southern Research Specialized Biocontainment Screening …, 2010).
Hit rate of the full screen: of about 310,000 compounds, about 410 (0.13%) were called active. These results got no clear call from the source, so the numbers are uncertain. How the calls were made is not given here.

Assay: inhibition of RSV-induced cytopathic effect – HEp-2 cells, primary 10 µM value included (AID 2391)
Details: at 10 µM, hits give high values

SMILES	CPE inhibition
CP(=O)(Nc1ccc(SC(F)(F)F)cc1)Oc1ccc(F)cc1 (stereo unspecified)	inconclusive: 22.7%
